From patent US20200000976A1, “A MEDICAL IMPLANT AND A METHOD OF COATING A MEDICAL IMPLANT” (priority 2016, published 2020)
Some results were stated once for a whole list of compounds, not compound by compound.

Test: drug elution from implant samples in phosphate buffer saline, quantified by UV-visible spectrophotometry
Format: physicochemical
Conditions: implant samples without coatings; phosphate buffer saline pH 7.4, shaking, 37 degree C; preliminary results

CN[C@H](CC(C)C)C(=O)N[C@H]1C(=O)N[C@@H](CC(N)=O)C(=O)N[C@H]2C(=O)N[C@H]3C(=O)N[C@H](C(=O)N[C@H](C(=O)O)c4cc(O)cc(O)c4-c4cc3ccc4O)[C@H](O)c3ccc(c(Cl)c3)Oc3cc2cc(c3O[C@@H]2O[C@H](CO)[C@@H](O)[C@H](O)[C@H]2O[C@H]2C[C@](C)(N)[C@H](O)[C@H](C)O2)Oc2ccc(cc2Cl)[C@H]1O [vancomycin]
eluted doses (above the MIC): > 0.5 microgram per ml
time for which eluted doses were above the MIC: 5 to 7 days
